Record: PubChem BioAssay AID686943 (Drosophila RNAi Screening Center, 2013)

- Test: 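Knockdowns that increase or decrease active ERK after insulin receptor stimulation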 (primary screen)
- System: Drosophila S2R+ haemocyte-like cells expressing YFP-tagged ERK (Rolled)
- Knock-down reagent: long dsRNA against Drosophila genes
- Conditions: insulin stimulation versus unstimulated cells; dose and duration not given
- Measurement: 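Per-plate z-scores of phospho-ERK immunostaining normalised to YFP-tagged ERK, measured with and without insulin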
- Reading the numbers: replicate 1, z-score of dpERK with insulin: higher = more active ERK per ERK-YFP after insulin
The deposit covers about 23,000 reagents; below is a random part of those that have a named target and a result. 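Extra replicates exist only for a retested subset of genes; insulin dose and duration not given; both raised and lowered dpERK matter.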 Names joined by + are all predicted targets of the reagent. Further read-outs or replicates are left out here. Not given: the amount of reagent, the time to read-out.

What is on record for CG1582 [DRSC19732]?
replicate 1, z-score of dpERK with insulin: 0.82

What did the screen give for sip3 [DRSC15402]?
replicate 1, z-score of dpERK with insulin: 0.02

For CG7173 [DRSC11812], what does the deposit list?
replicate 1, z-score of dpERK with insulin: -0.38

What is on record for CG15547 [DRSC15085]?
replicate 1, z-score of dpERK with insulin: 0.48

For Sox21b [DRSC10025], what does the deposit list?
replicate 1, z-score of dpERK with insulin: -1.75

Which result is listed for Sox21b [DRSC10634]?
replicate 1, z-score of dpERK with insulin: -2.73

How did the screen score Sox21b [DRSC22788]?
replicate 1, z-score of dpERK with insulin: -1.49

With CAH16 [DRSC15371], what was measured?
replicate 1, z-score of dpERK with insulin: 1.19

What is on record for CG7896 [DRSC16335]?
replicate 1, z-score of dpERK with insulin: 0.4

How did the screen score CG8087 [DRSC16375]?
replicate 1, z-score of dpERK with insulin: 0.68

What is on record for sdk [DRSC18831]?
replicate 1, z-score of dpERK with insulin: 0.14

For TpnC41C [DRSC04916], what does the deposit list?
replicate 1, z-score of dpERK with insulin: -0.54

Which result is listed for CG43110 [DRSC05661]?
replicate 1, z-score of dpERK with insulin: 0.28

What is on record for GABA-B-R3 [DRSC00561]?
replicate 1, z-score of dpERK with insulin: -0.06

What is on record for CG31021 [DRSC22319]?
replicate 1, z-score of dpERK with insulin: -0.02

Which result is listed for hry [DRSC11353]?
replicate 1, z-score of dpERK with insulin: -3.35

With Z600 [DRSC11317], what does the deposit list?
replicate 1, z-score of dpERK with insulin: -0.1

For glob3 [DRSC12261], how do the results read?
replicate 1, z-score of dpERK with insulin: 1.01

How did the screen score Sans [DRSC06357]?
replicate 1, z-score of dpERK with insulin: -0.52

How did the screen score CG42568 + DnaJ-60 [DRSC04207]?
replicate 1, z-score of dpERK with insulin: -1.25

What did the screen give for CG42568 + DnaJ-60 [DRSC04611]?
replicate 1, z-score of dpERK with insulin: 0.12
